From ChEMBL document CHEMBL5042535, “Structure-Based Design and Synthesis of N-Substituted 3-Amino-β-Carboline Derivatives as Potent αβ-Tubulin Degradation Agents” (J Med Chem, 2022)

What was measured:
A549 = test: Cytotoxicity in human A549 assessed as inhibition in cell growth measured after 24 hrs by MTT assay; type: functional, cell-based; conditions: A549, 24 h
[1] = Toxicity in mouse xenografted with human A2780T cells assessed as body weight loss at 10 to 30 mg/kg, iv treated 3 times a week; type: organism-based; conditions: in vivo, dose 10-30 mg/kg

Structure (SMILES): CC(=O)O[C@H]1C(=O)[C@@]2(C)[C@H]([C@H](OC(=O)c3ccccc3)[C@]3(O)C[C@H](OC(=O)[C@H](O)[C@@H](NC(=O)c4ccccc4)c4ccccc4)C(C)=C1C3(C)C)[C@]1(OC(C)=O)CO[C@@H]1C[C@@H]2O [PACLITAXEL]
- IC50 (A549): 0.0242 µM
- Activity [1]: Non-Toxic
